Two molecules from patent publication US20050187175A1 (published 2005) can be followed below.

Test [1] concerns the target T1, CPG15 (UniProt Q8CFV4).
T1 sequence (looked up): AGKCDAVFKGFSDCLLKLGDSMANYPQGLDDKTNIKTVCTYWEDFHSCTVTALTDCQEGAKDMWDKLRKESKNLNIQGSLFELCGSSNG
Briefly: SDS-PAGE of whole cell lysates under reducing or non-reducing conditions, FIG. 4A.

The target in test [2] is T1, CPG15. Briefly: non-reducing SDS-PAGE of whole cell extracts of transfected HEK293T cells.
Another test deals with T2, FLAG-tagged CPG15 (UniProt Q8CFV4).
T2 sequence (glycosylated; GPI-anchored form on cells (as the filing reports), looked up): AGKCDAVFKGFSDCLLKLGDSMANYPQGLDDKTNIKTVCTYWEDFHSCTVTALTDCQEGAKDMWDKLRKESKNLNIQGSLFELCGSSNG
Kind of test: co-immunoprecipitation from transfected HEK293T cell lysate: anti-FLAG IP, anti-His Western blot. In general terms: In western blotting, separated proteins are transferred to a membrane and probed.

Results are given in words; binding and its absence hold for the method and conditions named. For part of these data: Binding seen in cells or lysates may run through a third protein. Some binding calls cover weakened binding; strength is not graded here. For part of these data: Where a sequence is shown, tags or fusion partners need not be part of it.

B1: CPG15-2 (other)
chain: SEGPNRCDTIYQGFAECLIRLGDGMGRGGELQTVCRSWNDFHACASRVLSGCPEEAAAVWESLQQEARRAPHPDNLHILCGAPVSVRERIAGPETNQETLRATA
notes: also called mouse CPG15-2
In the case of B1, the binding result in the test with CPG15 [1] and in the test with CPG15 [2] was “binds” in each case.

B2: His-tagged CPG15-2 (protein, not shown: small tags and cut ends)
chain: SEGPNRCDTIYQGFAECLIRLGDGMGRGGELQTVCRSWNDFHACASRVLSGCPEEAAAVWESLQQEARRAPHPDNLHILCGAPVSVRERIAGPETNQETLRATA
In the case of B2, in the test with FLAG-tagged CPG15, the binding entry was “binds”.
